Record: PubChem BioAssay AID1159578 (Peter MacCallum Cancer Centre, 2015)

Aim: 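siRNA pools altering how lymphatic endothelial cells close a scratch wound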 (primary screen)
System: human lymphatic endothelial cells
Reagent: siRNA pool against human genes, 40 nM
Duration: 48 h after transfection
Measured: 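Cells stained with dye and imaged after a scratch; covered wound area and nuclei counted, duplicates averaged, migration set against mock wells and turned into a robust z-score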
Direction: migration robust z-score: higher = faster migration into the scratch; nuclei per well: higher = more cells in the well
Active means: 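Pools averaging fewer than 3300 nuclei are never called; remaining pools count as changed when migration robust z lies outside -2 to 2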
Meaning of the calls: active = migration changed; inactive = no migration change, or too few cells
In all, the deposit lists about 18,000 reagents; below is a random part of them. Of all reagents, about 1,030 (5.7%) were called active. 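Inactive calls also include pools with fewer than 3300 nuclei, whose migration was not assessed.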 Raw values are not corrected between plates. A number with no mark means an inactive call. Further read-outs or replicates are left out here.

gene symbol | migration robust z-score | nuclei per well, duplicate mean
LY6G6C | 0.8 | 5074
APOL6 | 0.42 | 3886
RRAS | -0.28 | 5846
ZMYND8 | 0.99 | 6157
ROMO1 | 1.21 | 6344
BIN3 | 0.46 | 7402
TIPE3 | 1.17 | 6004
STAU2 | 1.96 | 4838
DNAJC11 | -0.15 | 6020
IDH3G | -1.22 | 6056
KCNG4 | 0.08 | 6664
EHD1 | 0.41 | 4872
SNRNP40 | 1.09 | 6646
CD163L1 | -0.18 | 6946
EEA1 | 1.01 | 6224
NTNG2 | -0.03 | 5223
SSTR3 | 0.62 | 6376
ITPRIPL1 | 0.41 | 6332
ETV2 | 0.5 | 5768
GRAMD1C | -0.19 | 3587
DAPP1 | -0.36 | 5605
FAM110C | 0.22 | 5244
TP53TG5 | -0.05 | 6060
ZNF586 | 0.73 | 5310
NAPEPLD | 0.82 | 7217
MYOM2 | -0.05 | 5795
LINC03042 | 1.52 | 6580
CNGA4 | -1.09 | 5581
TNNC1 | 0.29 | 4728
ANO8 | -1.8 | 5707
ACP5 | -0.91 | 4888
SYNPO | -0.22 | 4556
CAMK2A | -0.88 | 4603
BRK1 | 0.68 | 5291
MIS12 | 0.34 | 5836
DECR1 | -0.6 | 6216
NFKB1 | 0.72 | 5904
VSIG1 | 1.96 | 5538
SEPTIN2 | 1.89 | 5406
PRDM2 | -0.16 | 5102
ITPR3 | -0.57 | 5903
ZNF655 | -1.67 | 4346
DPH1 | -0.73 | 5716
MAGEB3 | 0.14 | 6299
PRR5 | -0.37 | 6436
HRC | 0.99 | 5365
CCDC148 | -0.96 | 5808
PGAP3 | 0.02 | 5076
CD27 | -0.39 | 5851
AURKC | -1.46 | 4634
CEP162 | 1.63 | 5085
TELO2 | 1.1 | 5778
BCR | -1.14 | 4730
ZFP42 | -0.1 | 4865
AQP2 | -0.24 | 4949
TFEB | 0.34 | 5649
LRRC37A3 | 0.4 | 6006

Records above whose gene name starts with L or l:
gene symbol | migration robust z-score | nuclei per well, duplicate mean
LY6G6C | 0.8 | 5074
LINC03042 | 1.52 | 6580
LRRC37A3 | 0.4 | 6006
